From PubChem BioAssay AID2685 (National Center for Advancing Translational Sciences (NCATS), 2010)
The other results are listed elsewhere or left out. The main result of the screen is listed elsewhere. These columns were measured beside it and carry no call. The list favours compounds with an active or inconclusive main result. Words in brackets tell the shape of the fitted curve; partial curves, single points and poor fits give uncertain potencies.

Experiment: qHTS Assay for Lipid Storage Modulators in Drosophila S3 Cells;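 on cell number change: cells counted by Cell Tracker Red CMTPX staining in the red channel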
Conditions: BODIPY lipid droplet fluorescence, 18-24 h; for cell number change: measured here: cell count max response, cells fed with added oleic acid
Procedure, shortened: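 Laser-scanning cytometry quantifies lipid droplet accumulation (500–530 nm total intensity; droplet/cell object ratio) in oleic acid-fed (400 uM added) Drosophila S3 cells treated with a concentration series. 20 uM Triacsin C defined 100% inhibition.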

[1] = measured here: cell number channel AC50, cells fed with added oleic acid
[2] = measured here: lipid fluorescence (Fed channel) AC50, cells fed with added oleic acid

Row | SMILES | cell number change [%] | AC50 [1] | AC50 [2]
1 | COCCn1nnnc1CN(Cc1ccco1)Cc1cc2cc3c(cc2[nH]c1=O)OCO3 | -44 | 36.6 nM [falling, full curve, poor fit] | 5.8 nM [falling, full curve]
2 | CN(C)Cc1c(C(=O)N/N=C/c2ccoc2)nnn1-c1nonc1N | 24.2 | 4.61 nM [rising, full curve, poor fit] | 
3 | CCN(CC)c1ccc(NC(=O)CN2CCN(CC(=O)Nc3ccccc3F)CC2)cc1 | -68.3 | 29100 nM [falling, partial curve, poor fit] | 
4 | Cc1sc2ncnc(SC(C)C#N)c2c1C (stereo not given) | -23.8 |  | 
5 | COc1cc(/C=C2\NC(=S)N(C)C2=O)ccc1OCc1cccc(F)c1 | 2.84 |  | 
6 | CCC(C)(C)N1CC(=O)N(Cc2ccccc2)C(c2ccc(OC)cc2)C1=O (stereo not given) | 17.7 |  | 13000 nM [rising, single point]
7 | CC(CN1CCN(C)CC1)OC(=O)c1cccc(F)c1 (stereo not given) | 11.7 |  | 29100 nM [rising, single point]
8 | O=C(CN1CCN(C(=O)c2cccc(-n3cnnn3)c2)CC1)Nc1ccccc1Cl | 32.1 | 29100 nM [rising, single point] | 1640 nM [falling, partial curve]
9 | CC1=C(C(=O)OCc2ccc3c(c2)OCO3)C(c2ccccc2)NC(=O)N1 (stereo not given) |  |  | 103 nM [rising, full curve]
10 | CCc1nnc(NC(=O)c2ccc(COc3ccc(C)cc3)o2)s1 |  | 2060 nM [rising, partial curve] | 
11 | COc1ccc(OCC(O)Cn2c(Br)nc3c2c(=O)[nH]c(=O)n3C)cc1 (stereo not given) |  |  | 2910 nM [rising, partial curve]
12 | CCN1CCCC1CNC(=O)c1cc2c(=O)n(C)c3ccccc3c2n1C (stereo not given) | 33.6 | 259 nM [rising, full curve, poor fit] | 
13 | COc1ccc(N2CCN(C(=O)c3ccc(SC)cc3OC)CC2)cc1 | 23.7 | 116 nM [falling, full curve, poor fit] | 
14 | CC(C)N1C(=O)CCC1C(=O)N1CCC(Cc2ccccc2)CC1 (stereo not given) | 3.2 |  | 9200 nM [falling, partial curve]
15 | O=C(NC1CCCC1)C(c1ccc(Cl)cc1)N1CCN(C2CCCCC2)CC1 (stereo not given) | 27.6 |  | 
16 | Cc1sc(NC(=O)C2CCCC2)c(C#N)c1C | -0.874 |  | 16400 nM [rising, single point]

A second format for some results above.
O=C(NC1CCCC1)C(c1ccc(Cl)cc1)N1CCN(C2CCCCC2)CC1 (stereo not given)
  cell number change [%]: 27.6
Cc1sc(NC(=O)C2CCCC2)c(C#N)c1C
  cell number change [%]: -0.874
  AC50 [2]: 16400 nM [rising, single point]

Later entries:

Row | SMILES | cell number change [%] | AC50 [1] | AC50 [2]
17 | Cc1ccc(-c2noc(CNCCCN(C)C)n2)cc1 | -16.7 | 82 nM [falling, full curve, poor fit] | 130 nM [falling, full curve, poor fit]
18 | Cc1cc(C)c(S(=O)(=O)N(C)CC(=O)NC2CCCC2)c(C)c1 | 18.7 |  | 29100 nM [rising, single point]
19 | COCCN(C(=O)c1snc(C(N)=O)c1N)C(C(=O)NC1CCCC1)c1cc(OC)c(OC)c(OC)c1 (stereo not given) | 5.88 |  | 2310 nM [rising, full curve, poor fit]
20 | Cn1cc(C(=O)NCC2COc3ccccc3O2)c(=O)c2cc(S(=O)(=O)N3CCCCC3)ccc21 (stereo not given) | 24.8 | 517 nM [rising, full curve] | 1840 nM [rising, partial curve]
21 | COc1ccc(NC(C)=O)cc1C#N | 50.6 |  | 651 nM [rising, partial curve, poor fit]
22 | C/C(CCc1oc2c(Br)cc(Br)cc2c1-c1ccc(C)o1)=N\O | -41.5 | 29100 nM [falling, single point] | 32600 nM [falling, single point]
23 | C/C(=N/NC(=O)CNC(=O)Cc1ccccc1)c1ccco1 | 2.98 |  | 
24 | CCOC(=O)Cn1cc(-c2ccccc2)nn1 | -62.8 | 3260 nM [falling, full curve] | 6510 nM [falling, full curve]
25 | O=C1N/C(=C/c2cccn2-c2ccc(F)cc2)C(=O)N1Cc1ccccc1 | 2.03 | 3660 nM [rising, single point] | 23100 nM [rising, partial curve]
26 | CCCc1cc(=O)[nH]c(SCC(=O)N(Cc2ccccc2)C(C)C)n1 | -13.9 | 6510 nM [falling, single point] | 
27 | CC(=O)Nc1cccc(NC(=O)c2ccc3c(c2)CCN3S(=O)(=O)c2ccccc2)c1 | -13.8 |  | 
28 | C=CCN1C=C2C(=O)C(C)(OC(=O)c3cccs3)C(=O)C=C2C=C1CCCC(=O)OC (stereo not given) | 13.1 |  | 13000 nM [rising, single point]
29 | COc1cc(/C=N/NC(=O)CCC(=O)NC2CCCCC2)ccc1C | 24.3 |  | 
30 | O=C1C2CC=C(Cl)CC2C(=O)N1CCc1c[nH]c2ccccc12 (stereo not given) |  | 2910 nM [rising, partial curve] | 231 nM [rising, full curve, poor fit]
31 | CC(=O)c1ccc(Sc2ccc(C(C)=O)cc2)cc1 | 12.7 |  | 29100 nM [rising, single point]
